From article PMC10599732
Results are given in words; binding and its absence hold for the method and conditions named. In cells and extracts the contact can be indirect. A yes stands for co-enrichment or nearness to the bait. Other partners may have been found.

The chains behind the UniProt entries cited, without tags or fusion partners.
UniProt P09936: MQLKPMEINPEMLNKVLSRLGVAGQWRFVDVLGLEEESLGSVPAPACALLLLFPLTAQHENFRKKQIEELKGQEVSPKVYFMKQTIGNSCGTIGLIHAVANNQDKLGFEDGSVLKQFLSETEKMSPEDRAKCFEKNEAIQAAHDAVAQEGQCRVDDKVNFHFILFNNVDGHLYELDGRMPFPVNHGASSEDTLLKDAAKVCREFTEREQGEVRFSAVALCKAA
UniProt P14618: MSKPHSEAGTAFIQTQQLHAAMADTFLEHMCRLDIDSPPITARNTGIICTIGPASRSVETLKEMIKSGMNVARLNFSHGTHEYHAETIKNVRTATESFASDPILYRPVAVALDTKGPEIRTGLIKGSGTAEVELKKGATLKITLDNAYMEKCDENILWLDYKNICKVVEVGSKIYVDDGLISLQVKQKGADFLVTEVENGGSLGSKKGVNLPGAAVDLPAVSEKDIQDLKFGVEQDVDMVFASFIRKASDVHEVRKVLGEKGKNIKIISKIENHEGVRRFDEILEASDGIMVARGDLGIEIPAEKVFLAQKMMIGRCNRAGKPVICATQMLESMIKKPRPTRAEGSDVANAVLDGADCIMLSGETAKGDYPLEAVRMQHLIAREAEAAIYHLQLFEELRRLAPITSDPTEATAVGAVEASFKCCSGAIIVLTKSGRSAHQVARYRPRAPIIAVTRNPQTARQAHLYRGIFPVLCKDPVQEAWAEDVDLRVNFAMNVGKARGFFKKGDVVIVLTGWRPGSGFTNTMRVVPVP

Target: Ubiquitin Carboxy-Terminal Hydrolase L1 (human (endogenous in T24 and J82)) (UniProt P09936)
Test: affinity purification with mass spectrometry; anti-UCHL1 immunoprecipitate of UBC cell line lysate, Coomassie staining and MS (text: GST pull-down assay followed by IP-MS)

Q: “Pyruvate kinase M2 (from UniProt P14618 1-531) (enzyme)” was tested. Which binding did it give?
A: binds
